This assay has as its target T1, Myc-mouse Cmtm3 (CKLF-like MARVEL transmembrane domain-containing 3) (mouse) (UniProt Q99LJ5).
T1 sequence: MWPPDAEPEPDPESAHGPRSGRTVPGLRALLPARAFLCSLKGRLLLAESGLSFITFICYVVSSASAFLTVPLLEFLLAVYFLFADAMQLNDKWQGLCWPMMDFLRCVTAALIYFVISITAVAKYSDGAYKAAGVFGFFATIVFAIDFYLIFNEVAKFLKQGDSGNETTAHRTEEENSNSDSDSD
The assay can be described thus: co-IP; HEK 293 cells co-transfected with HA-p53 and Myc-Cmtm3, 48 h; whole-cell lysates incubated with anti-Myc overnight at 4 °C, protein A-Sepharose beads 2 h at 4 °C; western blot with anti-HA; IgG antibody as control. (In general: In western blotting, separated proteins are transferred to a membrane and probed.)

These are yes or no findings as the source states them, for the method shown. Binding seen in cells or lysates may run through a third protein. Some binding calls cover weakened binding; strength is not graded here. Sequences can lack the tags named with a protein.

On to “HA-human p53 (from UniProt P04637 1-393)”, for which the binding entry is listed as “binds”.

Values taken from PMC11352514.
